{"source": "patent US5016655A", "about": "“Cigarette manufacturing process” (priority 1989, dated 1991)", "key": {"[1]": {"conditions": "cited from earlier work; for concentration in the smoke stream: IARC 1986, depending on filtration; for Concentration Range in cigarette smoke: filtered cigarettes"}, "[2]": {"assay": "calculated air concentrations of cyclohexanol from cigarette smoke", "conditions": "0.500 mg cyclohexanol per cigarette"}, "[3]": {"assay": "transfer of cyclohexanol into smoke, standard smoking machine (Example 6)"}, "[4]": {"assay": "transfer of cyclohexanol to cigarette smoke, gas chromatography (Example 7)"}}, "note": "Entries after “also recorded” stand apart in the source; their conditions may differ."}
{"smiles": "O=NN1CCCC1c1cccnc1", "note": "(centres unmarked) [NNN, N'-Nitrosonoronicotine]", "values": [{"measurement": "concentration in the smoke stream", "setting": "[1]", "value": "0.2-3.7 ug per cigarette"}, {"measurement": "Concentration Range in cigarette smoke", "setting": "[1]", "value": "50-310 Nanograms per Cigarette"}]}
{"smiles": "CN(CCCC(=O)c1cccnc1)N=O", "note": "[NNK]", "values": [{"measurement": "concentration in the smoke stream", "setting": "[1]", "value": "0.12-0.44 ug per cigarette"}, {"measurement": "Concentration Range in cigarette smoke", "setting": "[1]", "value": "30-150 Nanograms per Cigarette"}]}
{"smiles": "OC1CCCCC1", "note": "[Cyclohexanol]", "values": [{"measurement": "amount transferred to the smoke", "setting": "[2]", "value": 0.050, "unit": "mg"}, {"measurement": "percentage transferred to the smoke", "setting": "[2]", "value": 10, "unit": "%"}, {"measurement": "smoked concentration", "setting": "[3]; 620 micrograms per cigarette", "value": "197 milligrams per cubic meter"}, {"measurement": "smoked concentration", "setting": "[3]; 8750 micrograms loaded per cigarette", "value": "2778 milligrams of cyclohexanol per cubic meter"}, {"measurement": "part of initial load on the tobacco transferred into inhaled smoke", "setting": "[3]; one cigarette", "value": "Approximately ten; also recorded: five to twenty"}, {"measurement": "% Transfer, Non-particulate", "setting": "[4]; 713.7 ug/cig. loaded", "value": 4.3, "unit": "%"}, {"measurement": "% Transfer, Particulate", "setting": "[4]; 713.7 ug/cig. loaded", "value": 2.3, "unit": "%"}, {"measurement": "% Transfer, Total Transfer", "setting": "[4]; 713.7 ug/cig. loaded", "value": 6.6, "unit": "%"}, {"measurement": "Amount Recovered in Smoke, Non-particulate", "setting": "[4]; 713.7 ug/cig. loaded", "value": 30.8, "unit": "ug/cigarette"}, {"measurement": "Amount Recovered in Smoke, Particulate", "setting": "[4]; 713.7 ug/cig. loaded", "value": 16.7, "unit": "ug/cigarette"}, {"measurement": "Amount Recovered in Smoke, Total", "setting": "[4]; 713.7 ug/cig. loaded", "value": 47.5, "unit": "ug/cigarette"}, {"measurement": "Cyclohexanol concentration in smoke", "setting": "[4]; Fully Smoked Cigarette", "value": 118.9, "unit": "µg/L"}, {"measurement": "Cyclohexanol concentration in smoke", "setting": "[4]; Instant (\"Puff\") Exposure", "value": 9.9, "unit": "µg/L"}]}
